# The list shows a part of the results.
# Legend:
# Experiment in all cases: glycan array binding signal (z-score within array); higher = stronger binding
# Conditions in all cases: glycan notation: IUPAC condensed, linker removed
# [1] = biological target: Neu5Ac(a2-6)Gal(b1-4)GlcNAc(b1-3)[Neu5Ac(a2-6)Gal(b1-4)GlcNAc(b1-6)]GalNAc
# In short: (§1)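 The binding signal is a Z-score computed within each array. Data were drawn from 3228 arrays in the Consortium for Functional Glycomics database, restricted to those with a known protein sequence. Scores were averaged over arrays of the same protein sequence at different concentrations or buffers, and over linkers, and negative values can be taken as non-binding.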
# [2] = biological target: Neu5Ac(a2-6)Gal(b1-4)GlcNAc(b1-6)GalNAc
# In short: as §1
# [3] = biological target: Neu5Ac(a2-6)Gal(b1-4)GlcNAc(b1-6)[Gal(b1-3)GlcNAc(b1-3)]Gal(b1-4)Glc
# In short: as §1
# [4] = biological target: Neu5Ac(a2-6)Gal(b1-4)GlcNAc(b1-6)[Gal(b1-3)]GalNAc
# In short: as §1
# [5] = biological target: Neu5Ac(a2-6)Gal(b1-4)GlcNAc6S
# In short: as §1
# [6] = biological target: Neu5Ac(a2-6)GalNAc
# In short: as §1
# [7] = biological target: Neu5Ac(a2-6)GalNAc(b1-4)GlcNAc
# In short: as §1
# [8] = biological target: Neu5Ac(a2-6)GalNAc(b1-4)GlcNAc6S
# In short: as §1
# [9] = biological target: Neu5Ac(a2-6)GlcNAc(b1-4)GlcNAc
# In short: as §1
# [10] = biological target: Neu5Ac(a2-6)GlcNAc(b1-4)GlcNAc(b1-4)GlcNAc
# In short: as §1
# [11] = biological target: Neu5Ac(a2-8)Neu5Ac
# In short: as §1
# [12] = biological target: Neu5Ac(a2-8)Neu5Ac(a2-3)Gal(b1-3)GalNAc(b1-4)[Neu5Ac(a2-3)]Gal(b1-4)Glc
# In short: as §1
# [13] = biological target: Neu5Ac(a2-8)Neu5Ac(a2-3)Gal(b1-3)GalNAc(b1-4)[Neu5Ac(a2-8)Neu5Ac(a2-3)]Gal(b1-4)Glc
# In short: as §1
# [14] = biological target: Neu5Ac(a2-8)Neu5Ac(a2-3)Gal(b1-4)Glc
# In short: as §1
# [15] = biological target: Neu5Ac(a2-8)Neu5Ac(a2-3)Gal(b1-4)GlcNAc
# In short: as §1
# [16] = biological target: Neu5Ac(a2-8)Neu5Ac(a2-3)[Gal(b1-3)GalNAc(b1-4)]Gal(b1-4)Glc
# In short: as §1
# [17] = biological target: Neu5Ac(a2-8)Neu5Ac(a2-3)[GalNAc(b1-4)]Gal(b1-4)Glc
# In short: as §1
# [18] = biological target: Neu5Ac(a2-8)Neu5Ac(a2-8)Neu5Ac
# In short: as §1
# [19] = biological target: Neu5Ac(a2-8)Neu5Ac(a2-8)Neu5Ac(a2-3)Gal(b1-4)Glc
# In short: as §1
# [20] = biological target: Neu5Ac(a2-8)Neu5Ac(a2-8)Neu5Ac(a2-3)[Gal(b1-3)GalNAc(b1-4)]Gal(b1-4)Glc
# In short: as §1
# [21] = biological target: Neu5Ac(a2-8)Neu5Ac(a2-8)Neu5Ac(a2-3)[GalNAc(b1-4)]Gal(b1-4)Glc
# In short: as §1
# [22] = biological target: Neu5Ac(a2-8)Neu5Ac(a2-8)Neu5Ac(a2-8)Neu5Ac(a2-3)[GalNAc(b1-4)]Gal(b1-4)Glc
# In short: as §1
# [23] = biological target: Neu5Ac(a2-8)Neu5Gc(a2-3)Gal(b1-4)GlcNAc
# In short: as §1
# [24] = biological target: Neu5Ac(b2-6)Gal(b1-4)GlcNAc
# In short: as §1
# [25] = biological target: Neu5Ac(b2-6)GalNAc
# In short: as §1
# [26] = biological target: Neu5Ac9Ac(a2-3)Gal(b1-3)GlcNAc
# In short: as §1
# [27] = biological target: Neu5Ac9Ac(a2-3)Gal(b1-4)GlcNAc
# In short: as §1
# [28] = biological target: Neu5Ac9Ac(a2-6)Gal(b1-4)GlcNAc
# In short: as §1
# [29] = biological target: Neu5Gc(a2-3)Gal(b1-3)GlcNAc
# In short: as §1
# [30] = biological target: Neu5Gc(a2-3)Gal(b1-3)[Fuc(a1-4)]GlcNAc
# In short: as §1
# [31] = biological target: Neu5Gc(a2-3)Gal(b1-4)Glc
# In short: as §1
# [32] = biological target: Neu5Gc(a2-3)Gal(b1-4)GlcNAc
# In short: as §1
# [33] = biological target: Neu5Gc(a2-3)Gal(b1-4)GlcNAc(b1-3)Gal(b1-4)GlcNAc(b1-2)Man(a1-3)[Neu5Gc(a2-3)Gal(b1-4)GlcNAc(b1-3)Gal(b1-4)GlcNAc(b1-2)Man(a1-6)]Man(b1-4)GlcNAc(b1-4)GlcNAc
# In short: as §1
# [34] = biological target: Neu5Gc(a2-3)Gal(b1-4)[Fuc(a1-3)]GlcNAc
# In short: as §1
# [35] = biological target: Neu5Gc(a2-6)Gal(b1-4)GlcNAc
# In short: as §1
# [36] = biological target: Neu5Gc(a2-6)GalNAc
# In short: as §1
# [37] = biological target: Neu5Gc(a2-8)Neu5Ac(a2-3)Gal(b1-4)GlcNAc
# In short: as §1
# [38] = biological target: Neu5Gc(a2-8)Neu5Gc(a2-3)Gal(b1-4)GlcNAc
# In short: as §1
binder,measurement,setting,value
"Clec12b (Mus musculus), Q149M0 (protein) MSDEVTYATLMLQDSARVRGNQDGNNLRKEGHPAQSSLWRGAALSLMTLCLVLVTGLVTLATMFLQVSNDINSDSEKLSQLQKSIHPQQDNLSESLNSSRKSLTEESLQSQISALLERQEQMATKLCKEFLIHASDHKCNPCPKTWQWYGNSCYYFSINEEKSWSDSRKDCIDKNATLVKIDSTEERDLLQSQLSLTFSFFWLGLSWNSSGRNWLWEDGSFPPPTLFSDKELASFNGSRDCAYFERGNIYASRCSAEIPWICEKTASLVKTEDLD",glycan array binding signal (z-score),[1],-0.368
same,glycan array binding signal (z-score),[2],-0.548
same,glycan array binding signal (z-score),[3],-0.369
same,glycan array binding signal (z-score),[4],-0.463
same,glycan array binding signal (z-score),[5],0.459
same,glycan array binding signal (z-score),[6],-0.612
same,glycan array binding signal (z-score),[7],-0.692
same,glycan array binding signal (z-score),[8],-0.524
same,glycan array binding signal (z-score),[9],-0.685
same,glycan array binding signal (z-score),[10],-0.54
same,glycan array binding signal (z-score),[11],-0.08
same,glycan array binding signal (z-score),[12],-0.305
same,glycan array binding signal (z-score),[13],-0.189
same,glycan array binding signal (z-score),[14],0.111
same,glycan array binding signal (z-score),[15],-0.331
same,glycan array binding signal (z-score),[16],0.807
same,glycan array binding signal (z-score),[17],-0.577
same,glycan array binding signal (z-score),[18],-0.156
same,glycan array binding signal (z-score),[19],-0.718
same,glycan array binding signal (z-score),[20],0.576
same,glycan array binding signal (z-score),[21],0.051
same,glycan array binding signal (z-score),[22],0.021
same,glycan array binding signal (z-score),[23],-0.719
same,glycan array binding signal (z-score),[24],2.48
same,glycan array binding signal (z-score),[25],0.492
same,glycan array binding signal (z-score),[26],-0.241
same,glycan array binding signal (z-score),[27],-0.437
same,glycan array binding signal (z-score),[28],-0.236
same,glycan array binding signal (z-score),[29],-0.447
same,glycan array binding signal (z-score),[30],-0.403
same,glycan array binding signal (z-score),[31],-0.107
same,glycan array binding signal (z-score),[32],-0.572
same,glycan array binding signal (z-score),[33],-0.195
same,glycan array binding signal (z-score),[34],-0.357
same,glycan array binding signal (z-score),[35],-0.541
same,glycan array binding signal (z-score),[36],-0.256
same,glycan array binding signal (z-score),[37],-0.219
same,glycan array binding signal (z-score),[38],0.915

# Rewritten as tab-separated lines: entries from further up
binder	measurement	setting	value
Clec12b (Mus musculus), Q149M0 (protein) MSDEVTYATLMLQDSARVRGNQDGNNLRKEGHPAQSSLWRGAALSLMTLCLVLVTGLVTLATMFLQVSNDINSDSEKLSQLQKSIHPQQDNLSESLNSSRKSLTEESLQSQISALLERQEQMATKLCKEFLIHASDHKCNPCPKTWQWYGNSCYYFSINEEKSWSDSRKDCIDKNATLVKIDSTEERDLLQSQLSLTFSFFWLGLSWNSSGRNWLWEDGSFPPPTLFSDKELASFNGSRDCAYFERGNIYASRCSAEIPWICEKTASLVKTEDLD	glycan array binding signal (z-score)	[6]	-0.612
same	glycan array binding signal (z-score)	[14]	0.111
same	glycan array binding signal (z-score)	[24]	2.48

# Reference: the supplement of paper PMC8728848
